Test results taken from publication PMC6677171, “Subunit interactions and arrangements in the fission yeast Mis16–Mis18–Mis19 complex” (Life Science Alliance, 2019).
Results are given in words; binding and its absence hold for the method and conditions named. Some results given as binding are weak or reduced against the parent protein; the word gives no strength.

Protein sequences, listed by entry. Tags and fused reporters are not part of them. Lines headed by an entry give the natural chain unless they say otherwise; changes in a name come on top.
UniProt O42995: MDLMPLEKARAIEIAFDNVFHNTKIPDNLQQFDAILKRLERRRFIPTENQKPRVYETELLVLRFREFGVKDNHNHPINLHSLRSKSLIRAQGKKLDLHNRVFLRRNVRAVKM

Assays:
[1] = molecular target: T1, preformed Mis16–Mis19 dimer (full-length Mis19) (S. pombe) (UniProt O94244+O42995); assay: pull-down; competition: preformed Mis16–Mis18–Mis19 complex (Strep-tagged) pulled down without or with peptides from the Mis19 N terminus; both purified
[2] = molecular target: T1, preformed Mis16–Mis19 dimer (full-length Mis19) (S. pombe); assay: SEC; competition: preformed Mis16–Mis18–Mis19 complex challenged with peptides from the Mis19 N terminus; dissociation seen as separate Mis16–19 and Mis18 peaks; both purified
[3] = molecular target: Mis16–Mis19^27–112 complex (S. pombe) (UniProt O94244+O42995); assay: pull-down; purified proteins or complexes; streptavidin–agarose beads; 25 mM Tris–HCl pH 7.5, 500 mM NaCl, 5% glycerol, 1 mM TCEP; 4°C, at least 1 h; tagged bait 10–20 μM, untagged targets in twofold to fivefold molar excess; eluted with desthiobiotin; SDS–PAGE; both purified

Measured: binding

B1: Mis18 (S. pombe) (protein, UniProt Q9P802 1-194)
chain: MSQTETSHSGYIDFKKESQPSVFQCKKCFQIVGDSNAWVISHREYLSFTLSDAVENSVRVEDTFKRSDDGLCVYSELSCTRCNEVIGKVYNSTPIYLDDIRDMYTFSMDKLQAYQLGNKTVNPEGLTRYQVDLEMREDIIKLKSFCLSLYEKFELHDETLRSVKETISSLKKPKIEGKEGKKEKARTYSKRTRK
binds: all assays above
